Chains of the proteins cited; added tags and fusions are not shown. Lines headed by an entry give the natural chain unless they say otherwise; changes in a name come on top.
UniProt A0A3B6DLT0: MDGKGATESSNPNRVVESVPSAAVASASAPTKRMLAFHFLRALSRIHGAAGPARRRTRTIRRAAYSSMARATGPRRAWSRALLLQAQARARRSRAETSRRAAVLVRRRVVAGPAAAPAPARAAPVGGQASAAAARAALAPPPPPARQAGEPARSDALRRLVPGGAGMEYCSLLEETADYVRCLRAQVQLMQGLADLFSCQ

According to article PMC11182588:

Target: GST-TaSnRK1α1 (wheat (Triticum aestivum, cDNA of Chinese Spring))
Test: pull-down; GST-TaSnRK1α1 (1 μg) on glutathione agarose beads incubated with MBP-TabHLH489 (1 μg) or MBP (1 μg) at 4 °C for 1 h; beads washed six times; immunoblot with anti-MBP; both purified

binding: binds
Substance: MBP-TabHLH489 (from UniProt A0A3B6DLT0)

Results are given in words; binding and its absence hold for the method and conditions named. A result given as binding can be weak or reduced; the word gives no strength.
